# System: white blood cells contained in a whole blood sample
# Assay: MPO-releasing effects of various surfactants on whole blood, ELISA (Examples 3 to 5)
# Assay type: cell-based, human
# Conditions: 60 minutes on ice, mean ± SD
# Description: 10 ml of healthy human whole blood was collected using a 28 G winged intravenous injection needle (manufactured and sold by Terumo Corporation, Japan), and immediately mixed with 10 mg of EDTA-2K (manufactured and sold by Dojin Laboratories, Japan), and the resultant EDTA-containing whole blood sample was subjected to the below-described various measurements within 1 hour from the blood collection.
# 500 μl of the blood was put in a 2-ml Eppendorf tube, and 500 μl of a 1% (w/v) aqueous surfactant solution was added to the tube, and the resultant mixture was stirred for 2 seconds by a Vortex mixer. Subsequently, the mixture was allowed to stand for 60 minutes on ice to thereby lyze the white blood cells. After the lysis of the white blood cells, 100 μl of the mixture was taken out and added to 900 μl of a PBS solution containing dissolved therein 1% BSA (trade name: “Sigma fraction V”, manufactured and sold under the brand of SIGMA™, U.S.A.). The resultant mixture was stirred by a Vortex mixer, and then 10 μl of the mixture was taken out and diluted 2,000-fold with 1% BSA/PBS solution. The resultant diluted mixture was subjected to a measurement by ELISA.
# The outline of the ELISA is as follows. A 5 μg/ml PBS solution of an anti-MPO antibody was put into the wells of a Nunc Immuno Plate (manufactured and sold by Nalge Nunc International, Denmark) in an amount of 100 μl per well. The solution in each well was sealed and subjected to a reaction for 18 hours at 4° C. thereby immobilizing the primary antibody. The wells were washed with a washing solution (0.05% Tween™ 20/PBS) and then subjected to blocking for 1 hour at room temperature by using 200 μl of a blocking solution (1% BSA/PBS), and then washed twice with the washing solution. […] The wells were washed 5 times with a washing solution, and 100 μl of a just-prepared TMB solution (manufactured and sold by Kirkegaad & Perry Laboratories, U.S.A.) was added thereto to effect a color reaction. 2 Minutes after the start of the color reaction, 100 μl of a 1 N sulfuric acid solution (manufactured and sold by Nacalai Tesque, Inc., Japan) was added to the wells to thereby terminate the reaction. Then, the absorbance at 450 nm was measured by means of a plate reader (manufactured and sold by Bio-Rad Laboratories, U.S.A.).
# With respect to the measurement of the MPO concentration of the sample, MPO (manufactured and sold by Elastin Products Co., INC., U.S.A.) was added to the sample so that the final concentration of the added MPO became 5 ng/ml or 10 ng/ml, and the resultant mixture was measured with respect to the MPO concentration. From the obtained value of MPO concentration, a calibration curve for each sample was obtained. […]
# [1] = Example 4 (Table 4): 500 μl blood + 500 μl 1% (w/v) surfactant solution
# [2] = Example 5 (Table 5): 500 μl blood + 500 μl 1% (w/v) surfactant solution
SMILES,MPO concentration of whole blood [1] [µg/mL],MPO concentration of whole blood [2] [µg/mL]
"CCCCCCCCCCCCCCCC[n+]1ccccc1.O.[Cl-] [HPC, Hexadecylpyridinium Chloride Monohydrate]",12.05 ± 1.18,10.60 ± 1.44
"CCCCCCCCCCCCCCCC[n+]1ccccc1.O.[Br-] [HPB, Hexadecylpyridinium Bromide Monohydrate]",10.96 ± 0.46,9.07 ± 1.14
